From PubChem BioAssay AID504834 (National Center for Advancing Translational Sciences (NCATS), 2011)
In all, about 320,000 compounds went through this assay and about 22,000 (6.9%) were called active. Inconclusive results, whose numbers are uncertain, are shown with a selection of clear calls. Calls follow the shape of the dose curve; as a rule, active = well fitted inhibition curve with a large enough effect; inconclusive = small, poorly fitted or top-dose-only effect, or another doubt; inactive = no such curve, though single readings can be large or run the other way. A potency beside an inconclusive call is a rough fit, not a confirmed value.
% is scaled to controls: 0 for no effect and ±100 for the full control effect; potency is read from the fitted curve at half-maximal effect.

Test: Primary qHTS for delayed death inhibitors of the malarial parasite plastid, 96 hour incubation
Conditions: P. falciparum luciferase reporter growth; series mostly up to 28.7 µM; activity change, negative = inhibition: at the top concentration
How it was run: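 Compounds incubated with erythrocytes infected by luciferase-expressing P. falciparum (2% hematocrit, 0.05% parasitemia final) for 96 hours, 37 C in 5% CO2. Growth inhibition scored as decreased luciferase luminescence.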
In the case of Cc1ccc(C)n1-c1nnc(N2CCC(C(=O)NCCCN3CC(C)CC(C)C3)CC2)s1 (stereo not drawn), the Potency is reported as inconclusive: 4.65 µM [inhibitor, partial curve].
With COCC(C)n1c(C)cc(C(=O)COC(=O)c2c(NC(C)=O)sc(C)c2C)c1C (stereo not drawn) the “activity change, negative = inhibition” value was inactive: -7.92%.
In the case of COC1CCCN(Cc2cn(C)nc2-c2ccc(Oc3ccccc3)cc2)C1 (stereo not drawn), the Potency is reported as inconclusive: 18.5 µM [inhibitor, single point].
For CCc1ccccc1NC(=S)N(Cc1cccc(C)c1)c1cccnc1, the Potency was inconclusive: 11.7 µM [inhibitor, single point].
For Cc1cc2oc(=O)cc(CSc3nnc(-c4cccs4)o3)c2cc1C(C)C, the Potency was inconclusive: 2.08 µM [inhibitor, partial curve, poor fit].
For CC(C)c1nc(C(=O)N2CCc3c([nH]c4ccccc34)C2c2ccccn2)cs1 (stereo not drawn), the “activity change, negative = inhibition” value was inactive: 0%.
In the case of CC12CCC(=O)N1C(C(=O)Nc1cc(S(=O)(=O)N3CCCCCC3)ccc1OCC(F)(F)F)CS2 (stereo not drawn), the Potency is reported as inconclusive: 9.28 µM [inhibitor, partial curve].
For COc1ccccc1CCC(=O)Nc1cc(S(=O)(=O)N2CCCCC2)ccc1N1CCN(C)CC1, the Potency was inconclusive: 5.86 µM [inhibitor, partial curve].
For CC1C(=O)N2CCCc3cc(NS(=O)(=O)c4ccc([N+](=O)[O-])cc4)cc1c32 (stereo not drawn), the Potency was inconclusive: 18.5 µM [inhibitor, single point].
In the case of Cc1noc(C)c1COC(=O)Cc1ccc(Cl)c(Cl)c1, the Potency is reported as inconclusive: 18.5 µM [inhibitor, single point].
With CCCCCNC(=O)Cc1ccc(S(=O)(=O)N2CCOCC2)s1 the Potency was inconclusive: 8.28 µM [inhibitor, partial curve].
For O=S(=O)(Nc1ccc2c(c1)oc1ccccc12)N1CCCC1, the “activity change, negative = inhibition” value was inactive: 48.7%.
For COc1ccc(N=C2SC(CC(=O)Nc3ccccc3OC)C(=O)N2Cc2ccco2)cc1 (stereo not drawn), the Potency was inconclusive: 18.5 µM [inhibitor, single point].
In the case of CCCS(=O)(=O)NCc1ccc2c(c1)cc(C)n2C, the “activity change, negative = inhibition” value is reported as inactive: 26.4%.
With COc1cc2c(cc1OC)C(c1ccccc1)N(S(C)(=O)=O)CC2 (stereo not drawn) the Potency was inconclusive: 11.7 µM [inhibitor, single point].
In the case of NC(=S)N/N=C/c1ncc(C(F)(F)F)cc1Cl, the Potency is reported as active: 3.29 µM.
In the case of Cc1ccc(CC(=O)NCCN2CCOCC2)cc1, the Potency is reported as inconclusive: 0.465 µM [inhibitor, full curve, poor fit].
For COc1ccc(-c2cc(C(=O)NNC(=O)c3csc(N4CCOCC4)n3)c3ccccc3n2)cc1, the Potency was inconclusive: 5.22 µM [inhibitor, partial curve].
